Data as given in publication PMC12603192.

T1: MYC-MARCH2 (human) (UniProt Q9P0N8)
T1 sequence: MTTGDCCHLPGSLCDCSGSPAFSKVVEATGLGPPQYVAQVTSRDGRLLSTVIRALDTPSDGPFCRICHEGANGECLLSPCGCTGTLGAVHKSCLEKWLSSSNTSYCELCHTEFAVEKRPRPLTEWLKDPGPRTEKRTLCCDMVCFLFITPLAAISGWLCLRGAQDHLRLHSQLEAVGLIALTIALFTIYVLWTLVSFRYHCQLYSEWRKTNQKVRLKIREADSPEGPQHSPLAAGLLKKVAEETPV


Key:
Test in all cases: co-IP; tagged proteins co-expressed (HEK293T for Fig. 2B); lysis in 1% NP-40, 20 mM Tris-HCl pH 7.6, 150 mM NaCl, 2 mM EDTA; magnetic beads overnight at 4 °C, five washes; immunoblot
MYC-MARCH2 (human) = target: T1, MYC-MARCH2 (human)
[1] = target: HA-MARCH2 TM-containing C-terminus (human)
[2] = target: HA-MARCH2 RING domain alone (human)
[3] = target: HA-MARCH2 with TM1 deleted (human) (UniProt Q9P0N8)

binding (MYC-MARCH2 (human))	binding [1]	binding [2]	binding [3]	Molecule
binds weakly	–	–	–	ALK5 transmembrane (TM)-containing N-terminus (human) (domain or fragment)
–	binds	no binding	binds	FLAG-ALK5 (receptor, UniProt P36897 34-503) LQCFCHLCTKDNFTCVTDGLCFVSVTETTDKVIHNSMCIAEIDLIPRDRPFVCAPSSKTGSVTTTYCCNQDHCNKIELPTTVKSSPGLGPVELAAVIAGPVCFVCISLMLMVYICHNRTVIHHRVPNEEDPSLDRPFISEGTTLKDLIYDMTTSGSGSGLPLLVQRTIARTIVLQESIGKGRFGEVWRGKWRGEEVAVKIFSSREERSWFREAEIYQTVMLRHENILGFIAADNKDNGTWTQLWLVSDYHEHGSLFDYLNRYTVTVEGMIKLALSTASGLAHLHMEIVGTQGKPAIAHRDLKSKNILVKKNGTCCIADLGLAVRHDSATDTIDIAPNHRVGTKRYMAPEVLDDSINMKHFESFKRADIYAMGLVFWEIARRCSIGGIHEDYQLPYYDLVPSDPSVEEMRKVVCEQKLRPNIPNRWQSCEALRVMAKIMRECWYANGAARLTALRIKKTLSQLSQQEGIKM

No constants are given. Whether binding was seen depends on the method and setting. In cells and extracts the contact can be indirect. For some of these results: Binding can be weak; no strength is given. Sequences can lack the tags named with a protein.
